Measured values: patent publication US20030225152A1, “3-(Arylamino)methylene-1, 3-dihydro-2h-indol-2-ones as kinase inhibitors” (priority 2001, published 2003)
Some of these results come from one statement about several compounds together. For part of these data: At least one read-out could not be matched to a standard name with certainty.

Protein sequences, listed by entry. Tags and fused reporters are not part of them. Residues count along the entry.
UniProt P35968, 786-1356: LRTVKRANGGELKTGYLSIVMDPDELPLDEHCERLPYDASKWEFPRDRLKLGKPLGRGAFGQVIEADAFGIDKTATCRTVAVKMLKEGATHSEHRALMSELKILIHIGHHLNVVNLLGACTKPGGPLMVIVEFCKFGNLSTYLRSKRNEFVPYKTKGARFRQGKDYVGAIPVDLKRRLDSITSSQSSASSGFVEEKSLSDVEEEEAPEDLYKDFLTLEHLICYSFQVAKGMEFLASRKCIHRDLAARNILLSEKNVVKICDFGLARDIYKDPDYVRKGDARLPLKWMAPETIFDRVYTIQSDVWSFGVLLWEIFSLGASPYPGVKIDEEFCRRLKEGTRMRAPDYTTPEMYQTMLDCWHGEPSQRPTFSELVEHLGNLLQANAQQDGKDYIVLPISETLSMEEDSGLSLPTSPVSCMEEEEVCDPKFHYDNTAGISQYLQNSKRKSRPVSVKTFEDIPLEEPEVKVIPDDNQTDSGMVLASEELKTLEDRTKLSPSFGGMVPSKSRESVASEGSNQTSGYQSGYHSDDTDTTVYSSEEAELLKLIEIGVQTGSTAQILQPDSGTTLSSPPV

Tests used:
[1] = test system: VEGF induced increases in intracellular calcium levels in HUVEC (human umbilical vein endothelial cells); test: VEGF Stimulated Ca++ Signal in vitro (FLIPR); type: cell-based; details: either-or criterion summarising Table 2
Procedure: Cells were loaded with calcium indicator Fluo-4 for 45 minutes at 37° C. Cells were washed 4 times (Original Cell Wash, Labsystems) to remove extracellular dye. […] Data were generated by determining max-min fluorescence levels for unstimulated, stimulated, and drug treated samples. IC50 values for test compounds were calculated from % inhibition of VEGF stimulated responses in the absence of inhibitor.

[2] = target: T1, cytoplasmic domain of the human VEGF receptor (VEGFR-2) (Homo sapiens, UniProt P35968); test: KDR Assay; type: biochemical; details: His-VEGFR-2; 3.6 μM ATP
T1 construct: The cytoplasmic domain of the human VEGF receptor (VEGFR-2) was expressed as a Histidine-tagged fusion protein; Histidine tag

[3] = test system: VEGF-induced EBD extravasation; test: VEGF-induced Dermal Extravasation in Guinea Pig (Miles Assay); type: in vivo; details: summary of Tables 2, 3 and 4; oral administration
Procedure: VEGF-induced Dermal Extravasation in Guinea Pig (Miles Assay). Male Hartley guinea pigs (300-600 g) were anesthetized with isofluorane, sheared, and given a single dose of drug or the respective vehicle. The guinea pigs were dosed orally unless indicated otherwise in Table 3. Ten minutes prior to the end of drug treatment, guinea pigs were anesthetized with isofluorane, and 0.5% Evans blue dye (EBD) in PBS (13-15 mg/kg dose of EBD) was injected intravenously. After 5 minutes, triplicate intradermal injections of 100 ng rhVEGF165 in 100 μl PBS and of 100 μl PBS alone were administered on the flank. After 20 minutes, each animal was euthanized with Pentosol, and the skin containing the intradermal injection sites was removed for image analysis.
Using an analog video camera coupled to a PC, an image of each trans-illuminated skin sample was captured, and the integrated optical density of each injection site was measured using ImagePro 4. For each skin sample, the difference between the mean optical density of the VEGF sites and mean optical density of the PBS sites is the measure of VEGF-induced EBD extravasation in that animal. These measured values were averaged per study group to determine the mean VEGF-induced EBD extravasation for each experimental condition, and the group means were then compared to assess inhibition of VEGF-induced EBD extravasation in the drug-treated groups relative to the vehicle-treated controls.
To determine the dose required for 50% inhibition (ID50), the percent inhibition data was plotted as a function of oral dose, using the ‘best-fit’ analysis within MicroSoft Excel software. The ID50 value was verified visually by using the plotted data (horizontal line from 50% y value, at intersection with best-fit line drop vertical line to x axis (dose)).

CCN(CC)CCCOc1ccc(NC=C2C(=O)Nc3cccc(C)c32)cc1F [Example 249, 3-{[4-(3-Diethylamino-propoxy)-3-fluoro-phenylamino]-methylene}-4-methyl-1,3-dihydro-indol-2-one]
% inhibition of VEGF or VEGF IC50 in either the VEGF stimulated Ca++ signal assay or KDR assay [1]: either % inhibition of VEGF>79% or VEGIF IC50<1.0 μM
IC50 [2]: ≤ 1 µM
in-vivo activity [3]: significant in-vivo activity

CCN(CC)CCCOc1ccc(NC=C2C(=O)Nc3cc(F)ccc32)cc1F [Example 250, 3-{[4-(3-Diethylamino-propoxy)-3-fluoro-phenylamino]-methylene}-6-fluoro-1,3-dihydro-indol-2-one]
% inhibition of VEGF or VEGF IC50 in either the VEGF stimulated Ca++ signal assay or KDR assay [1]: either % inhibition of VEGF>79% or VEGIF IC50<1.0 μM
IC50 [2]: ≤ 1 µM
in-vivo activity [3]: significant in-vivo activity

CCN(CC)CCOc1ccc(NC=C2C(=O)Nc3cc(F)ccc32)cc1 [Example 266, 3-{[4-(2-Diethylamino-ethoxy)-phenylamino]-methylene}-6-fluoro-1,3-dihydro-indol-2-one]
% inhibition of VEGF or VEGF IC50 in either the VEGF stimulated Ca++ signal assay or KDR assay [1]: either % inhibition of VEGF>79% or VEGIF IC50<1.0 μM
IC50 [2]: ≤ 1 µM
in-vivo activity [3]: significant in-vivo activity

O=C1Nc2cc(F)ccc2C1=CNc1ccc(OCCN2CCCC2)cc1 [Example 271, 6-Fluoro-3-{[4-(2-pyrrolidin-1-yl-ethoxy)-phenylamino]-methylene}-1,3-dihydro-indol-2-one]
% inhibition of VEGF or VEGF IC50 in either the VEGF stimulated Ca++ signal assay or KDR assay [1]: either % inhibition of VEGF>79% or VEGIF IC50<1.0 μM
IC50 [2]: ≤ 1 µM
in-vivo activity [3]: significant in-vivo activity
